# Reference: the supplement of paper PMC10849652
# Sequences of proteins named here, by UniProt entry; tags and fusion partners are left off. A change or cut given only in a name is not applied to a line headed by its entry.
# UniProt O95067, whole entry, looked up: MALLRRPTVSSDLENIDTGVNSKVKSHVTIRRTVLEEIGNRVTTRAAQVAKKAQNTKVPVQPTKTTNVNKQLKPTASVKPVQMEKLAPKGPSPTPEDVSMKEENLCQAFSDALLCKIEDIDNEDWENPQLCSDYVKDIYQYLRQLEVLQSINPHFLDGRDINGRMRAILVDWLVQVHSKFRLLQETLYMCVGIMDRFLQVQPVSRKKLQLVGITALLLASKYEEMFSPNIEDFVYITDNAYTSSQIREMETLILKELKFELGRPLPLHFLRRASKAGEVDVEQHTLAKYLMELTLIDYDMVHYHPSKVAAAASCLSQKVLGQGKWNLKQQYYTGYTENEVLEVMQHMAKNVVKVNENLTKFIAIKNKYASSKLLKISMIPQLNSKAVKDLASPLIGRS
# UniProt Q8ND76: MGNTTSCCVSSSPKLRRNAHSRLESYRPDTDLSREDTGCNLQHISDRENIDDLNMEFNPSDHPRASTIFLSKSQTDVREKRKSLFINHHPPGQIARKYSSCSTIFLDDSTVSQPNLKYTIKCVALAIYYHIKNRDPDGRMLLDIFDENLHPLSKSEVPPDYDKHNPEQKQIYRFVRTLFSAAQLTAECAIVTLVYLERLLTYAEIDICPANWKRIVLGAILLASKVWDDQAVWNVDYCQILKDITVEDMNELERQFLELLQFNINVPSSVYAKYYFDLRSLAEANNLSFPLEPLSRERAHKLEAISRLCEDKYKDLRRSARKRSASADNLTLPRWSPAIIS
# UniProt Q9NPF0: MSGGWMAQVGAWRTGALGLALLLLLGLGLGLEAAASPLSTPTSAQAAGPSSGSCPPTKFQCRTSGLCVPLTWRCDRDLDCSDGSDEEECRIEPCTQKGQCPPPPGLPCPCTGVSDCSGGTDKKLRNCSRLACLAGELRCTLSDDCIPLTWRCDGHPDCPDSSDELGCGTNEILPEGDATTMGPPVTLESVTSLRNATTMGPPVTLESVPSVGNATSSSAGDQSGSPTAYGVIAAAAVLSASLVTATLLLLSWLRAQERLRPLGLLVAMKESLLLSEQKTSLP
# UniProt Q567U6, whole entry, looked up: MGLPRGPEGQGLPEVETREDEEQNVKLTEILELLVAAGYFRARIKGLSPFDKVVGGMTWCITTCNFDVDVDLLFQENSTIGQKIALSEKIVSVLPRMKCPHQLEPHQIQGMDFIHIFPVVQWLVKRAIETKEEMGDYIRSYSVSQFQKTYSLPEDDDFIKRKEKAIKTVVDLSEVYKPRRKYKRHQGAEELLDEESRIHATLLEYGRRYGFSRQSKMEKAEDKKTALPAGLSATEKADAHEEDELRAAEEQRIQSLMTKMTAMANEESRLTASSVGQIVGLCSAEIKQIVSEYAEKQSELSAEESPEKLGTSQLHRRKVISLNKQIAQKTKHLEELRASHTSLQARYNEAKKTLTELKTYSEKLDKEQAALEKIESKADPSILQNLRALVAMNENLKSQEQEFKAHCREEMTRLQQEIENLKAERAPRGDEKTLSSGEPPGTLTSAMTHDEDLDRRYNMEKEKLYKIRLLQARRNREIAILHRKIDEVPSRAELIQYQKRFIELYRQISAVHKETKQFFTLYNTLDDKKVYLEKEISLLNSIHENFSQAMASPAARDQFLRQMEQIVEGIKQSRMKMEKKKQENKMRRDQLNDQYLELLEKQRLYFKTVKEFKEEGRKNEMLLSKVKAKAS
# UniProt Q7Z6B0: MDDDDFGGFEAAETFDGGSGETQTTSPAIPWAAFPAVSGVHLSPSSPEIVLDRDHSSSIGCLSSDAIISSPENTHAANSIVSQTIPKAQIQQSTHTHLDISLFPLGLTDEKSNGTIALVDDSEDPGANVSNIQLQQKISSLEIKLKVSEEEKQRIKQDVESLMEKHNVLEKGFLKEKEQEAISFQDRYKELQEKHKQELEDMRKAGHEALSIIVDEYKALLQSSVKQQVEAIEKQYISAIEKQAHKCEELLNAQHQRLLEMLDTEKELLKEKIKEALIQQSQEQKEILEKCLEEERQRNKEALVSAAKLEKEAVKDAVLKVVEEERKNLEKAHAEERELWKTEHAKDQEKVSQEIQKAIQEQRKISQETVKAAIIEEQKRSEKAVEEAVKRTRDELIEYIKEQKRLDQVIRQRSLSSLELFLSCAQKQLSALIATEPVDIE
# UniProt A6NHX0: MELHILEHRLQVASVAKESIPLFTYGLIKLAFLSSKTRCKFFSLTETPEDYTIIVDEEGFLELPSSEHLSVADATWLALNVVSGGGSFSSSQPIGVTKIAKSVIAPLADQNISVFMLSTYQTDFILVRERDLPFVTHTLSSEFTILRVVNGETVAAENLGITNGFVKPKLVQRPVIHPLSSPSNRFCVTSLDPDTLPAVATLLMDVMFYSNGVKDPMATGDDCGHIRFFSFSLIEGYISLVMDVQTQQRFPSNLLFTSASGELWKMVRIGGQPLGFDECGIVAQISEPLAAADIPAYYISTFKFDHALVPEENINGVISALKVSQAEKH
# UniProt Q08722, whole entry, looked up: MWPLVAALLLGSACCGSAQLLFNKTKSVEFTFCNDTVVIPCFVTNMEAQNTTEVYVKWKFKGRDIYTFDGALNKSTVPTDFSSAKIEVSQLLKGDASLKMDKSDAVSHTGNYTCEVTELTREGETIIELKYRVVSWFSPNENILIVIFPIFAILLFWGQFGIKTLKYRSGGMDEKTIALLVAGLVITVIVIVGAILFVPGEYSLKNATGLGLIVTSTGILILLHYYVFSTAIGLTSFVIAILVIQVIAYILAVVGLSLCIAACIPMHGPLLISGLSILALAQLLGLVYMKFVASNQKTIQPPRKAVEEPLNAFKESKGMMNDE
# UniProt P48960: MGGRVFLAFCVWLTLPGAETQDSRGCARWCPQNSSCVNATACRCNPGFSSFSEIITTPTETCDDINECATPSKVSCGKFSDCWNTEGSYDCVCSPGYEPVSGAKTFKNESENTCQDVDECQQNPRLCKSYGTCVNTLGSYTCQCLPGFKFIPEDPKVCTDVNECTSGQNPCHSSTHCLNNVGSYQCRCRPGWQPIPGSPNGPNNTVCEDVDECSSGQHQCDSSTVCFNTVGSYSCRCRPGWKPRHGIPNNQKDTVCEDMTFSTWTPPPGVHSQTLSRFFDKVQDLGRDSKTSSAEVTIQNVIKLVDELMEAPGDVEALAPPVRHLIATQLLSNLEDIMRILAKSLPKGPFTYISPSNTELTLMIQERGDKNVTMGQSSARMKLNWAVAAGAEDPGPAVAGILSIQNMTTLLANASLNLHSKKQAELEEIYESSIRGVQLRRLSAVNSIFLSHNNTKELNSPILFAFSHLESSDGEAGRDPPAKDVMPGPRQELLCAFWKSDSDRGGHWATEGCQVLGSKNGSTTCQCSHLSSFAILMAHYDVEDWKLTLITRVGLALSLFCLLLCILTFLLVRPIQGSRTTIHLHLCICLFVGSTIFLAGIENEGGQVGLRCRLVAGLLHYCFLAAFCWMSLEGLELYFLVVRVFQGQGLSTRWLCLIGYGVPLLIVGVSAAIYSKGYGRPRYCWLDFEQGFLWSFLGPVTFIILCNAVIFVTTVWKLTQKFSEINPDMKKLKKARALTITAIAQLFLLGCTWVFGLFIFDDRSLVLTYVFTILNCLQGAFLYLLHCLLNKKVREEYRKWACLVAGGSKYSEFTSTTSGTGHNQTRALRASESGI
# UniProt O14618: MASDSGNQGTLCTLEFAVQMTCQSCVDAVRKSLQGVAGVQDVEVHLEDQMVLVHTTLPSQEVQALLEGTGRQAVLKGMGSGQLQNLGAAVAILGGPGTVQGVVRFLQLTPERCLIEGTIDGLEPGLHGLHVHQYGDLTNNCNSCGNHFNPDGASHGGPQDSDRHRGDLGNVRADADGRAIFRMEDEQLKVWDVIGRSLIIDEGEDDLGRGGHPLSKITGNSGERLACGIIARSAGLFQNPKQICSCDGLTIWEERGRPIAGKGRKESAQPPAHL
# UniProt Q96CT7: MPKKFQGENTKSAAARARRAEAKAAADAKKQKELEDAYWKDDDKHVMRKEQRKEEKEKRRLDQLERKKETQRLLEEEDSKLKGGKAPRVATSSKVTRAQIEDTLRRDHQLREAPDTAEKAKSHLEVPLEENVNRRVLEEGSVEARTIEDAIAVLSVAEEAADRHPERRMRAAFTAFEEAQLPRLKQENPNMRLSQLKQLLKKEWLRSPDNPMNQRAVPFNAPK
# UniProt O75081: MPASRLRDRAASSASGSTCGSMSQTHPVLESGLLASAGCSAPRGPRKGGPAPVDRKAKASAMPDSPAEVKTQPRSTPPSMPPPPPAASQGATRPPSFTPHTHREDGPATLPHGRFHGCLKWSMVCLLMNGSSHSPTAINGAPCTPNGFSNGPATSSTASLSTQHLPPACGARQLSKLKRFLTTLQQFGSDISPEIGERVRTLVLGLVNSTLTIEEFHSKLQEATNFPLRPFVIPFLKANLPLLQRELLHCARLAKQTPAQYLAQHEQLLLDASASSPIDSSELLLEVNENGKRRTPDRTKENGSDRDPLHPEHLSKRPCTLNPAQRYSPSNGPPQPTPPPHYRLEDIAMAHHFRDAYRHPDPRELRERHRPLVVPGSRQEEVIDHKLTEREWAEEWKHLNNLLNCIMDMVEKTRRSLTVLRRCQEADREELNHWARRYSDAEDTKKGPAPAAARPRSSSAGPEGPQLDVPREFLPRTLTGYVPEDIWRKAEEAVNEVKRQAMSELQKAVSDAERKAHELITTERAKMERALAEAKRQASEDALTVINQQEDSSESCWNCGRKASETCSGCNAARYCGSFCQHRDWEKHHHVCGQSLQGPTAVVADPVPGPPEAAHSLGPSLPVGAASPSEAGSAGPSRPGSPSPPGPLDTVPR
# UniProt Q8WUD4: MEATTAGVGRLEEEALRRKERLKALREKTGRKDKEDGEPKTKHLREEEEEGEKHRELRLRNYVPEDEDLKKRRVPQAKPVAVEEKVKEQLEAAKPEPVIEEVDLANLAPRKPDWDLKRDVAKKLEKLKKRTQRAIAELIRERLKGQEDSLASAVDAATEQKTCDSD
# UniProt Q13042, whole entry, looked up: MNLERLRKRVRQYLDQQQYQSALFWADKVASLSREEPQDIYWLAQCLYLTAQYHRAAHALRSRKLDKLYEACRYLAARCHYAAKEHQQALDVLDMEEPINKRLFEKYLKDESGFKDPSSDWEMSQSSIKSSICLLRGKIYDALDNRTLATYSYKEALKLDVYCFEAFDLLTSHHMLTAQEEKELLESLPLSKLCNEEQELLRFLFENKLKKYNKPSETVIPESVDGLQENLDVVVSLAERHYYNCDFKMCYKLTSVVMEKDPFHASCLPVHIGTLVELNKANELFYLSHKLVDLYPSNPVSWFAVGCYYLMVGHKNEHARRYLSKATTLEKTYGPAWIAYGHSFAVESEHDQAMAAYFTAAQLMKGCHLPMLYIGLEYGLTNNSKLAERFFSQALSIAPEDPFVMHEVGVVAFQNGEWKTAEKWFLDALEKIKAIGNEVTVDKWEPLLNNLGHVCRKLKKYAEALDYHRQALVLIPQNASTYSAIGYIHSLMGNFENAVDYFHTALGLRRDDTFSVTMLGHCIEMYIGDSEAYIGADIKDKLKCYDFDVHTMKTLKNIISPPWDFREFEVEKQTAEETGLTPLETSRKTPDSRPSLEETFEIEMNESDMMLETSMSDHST
# UniProt Q86X55: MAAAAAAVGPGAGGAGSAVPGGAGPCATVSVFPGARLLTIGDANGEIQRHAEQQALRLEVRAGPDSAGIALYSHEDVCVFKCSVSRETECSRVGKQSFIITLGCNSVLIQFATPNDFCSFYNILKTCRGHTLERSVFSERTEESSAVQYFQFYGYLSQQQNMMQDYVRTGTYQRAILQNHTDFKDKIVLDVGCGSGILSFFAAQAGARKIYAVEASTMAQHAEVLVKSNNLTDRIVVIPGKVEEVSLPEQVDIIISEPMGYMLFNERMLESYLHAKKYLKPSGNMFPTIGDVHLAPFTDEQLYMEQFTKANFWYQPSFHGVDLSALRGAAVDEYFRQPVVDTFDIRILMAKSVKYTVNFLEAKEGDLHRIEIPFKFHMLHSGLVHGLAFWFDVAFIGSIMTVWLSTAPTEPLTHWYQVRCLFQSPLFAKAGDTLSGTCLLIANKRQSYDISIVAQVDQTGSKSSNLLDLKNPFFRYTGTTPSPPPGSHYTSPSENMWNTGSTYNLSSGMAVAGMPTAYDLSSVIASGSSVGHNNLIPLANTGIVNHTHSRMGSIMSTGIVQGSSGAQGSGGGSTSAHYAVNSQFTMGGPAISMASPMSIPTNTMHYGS
# UniProt Q6PK04: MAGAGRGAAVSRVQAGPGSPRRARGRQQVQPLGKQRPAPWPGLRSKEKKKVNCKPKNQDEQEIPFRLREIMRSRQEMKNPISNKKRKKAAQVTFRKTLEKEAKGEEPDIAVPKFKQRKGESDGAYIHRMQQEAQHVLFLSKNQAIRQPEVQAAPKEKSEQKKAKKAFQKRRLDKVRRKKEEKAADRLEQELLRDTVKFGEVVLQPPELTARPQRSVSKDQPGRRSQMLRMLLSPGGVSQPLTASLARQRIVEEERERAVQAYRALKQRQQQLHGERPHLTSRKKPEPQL
# This is one part of the list. Residues, ends and D or L forms follow the SMILES beside them. *: point of attachment. Cbz = O=C(OCc1ccccc1)*
# Key:
# Experiment in all cases: log2 fold change, soluble protein after heating vs DMSO (PISA); higher = thermal stabilisation; K562 cells, 10 uM, 30 min; active = over 0.2 and 3.5 SD of the protein, either way, in both replicates (recomputed)
# erlotinib = compound: C#Cc1cccc(Nc2ncnc3cc(OCCOC)c(OCCOC)cc23)c1 [erlotinib]
# Outline: (§1)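 Values are thermal stability changes relative to control samples and are taken from duplicates. They are stated as log2 fold changes. Before quantification by TMTpro 16plex LC-MS/MS with equalised channel sums, K562 cells at 2×10^6 cells/mL were treated with 10 μM compound for 30 min, heated in aliquots for 3 min across 48°C-58°C, pooled, extracted in PBS with 0.5% NP-40 at 4°C, and centrifuged at 21,000xg for 90 min to give the soluble supernatant.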
# [1] = compound: C/C(=N\NC(=O)C1=CC(=CC=C1)S(=O)(=O)N2CCOCC2)/C3=C(C=CC(=C3)Cl)O
# Outline: as §1
# [2] = compound: C1=CC(=C(C=C1Cl)C2=NC3=NC=CN=C3C(=N2)NC4=CC=NC=C4)F
# Outline: as §1
# [3] = compound: C1=CC(=CC=C1C2=NC3=C(N2)C=C(C=C3)C(=O)N)OC4=CC=C(C=C4)Cl
# Outline: as §1
# [4] = compound: C1=CC2=C(C=CC(=C2)/C=C\3/C(=O)NC(=NCC4=CC=CS4)S3)N=C1
# Outline: as §1
# [5] = compound: C1=CC2=NC=CN=C2C=C1/C=C/3\C(=O)NC(=O)S3
# Outline: as §1
# [6] = compound: C1=CC=C(C=C1)C2=NC(=C(N2)C3=CC=NC=C3)C4=CC(=C(C=C4)Cl)O
# Outline: as §1
# [7] = compound: C1=CC=C2C(=C1)C3=NNC4=CC=CC(=C43)C2=O
# Outline: as §1
# [8] = compound: C1CCN(C1)C(=O)NC2=CC=CC(=C2)NC3=NC=C(C(=N3)NCCC4=CN=CN4)Br
# Outline: as §1
# [9] = compound: C1CN(CCC1(CC2=CC=C(C=C2)Cl)N)C3=NC=NC4=C3C=CN4
# Outline: as §1
# IRAK-1-4 Inhibitor I = compound: C1COCCN1CCN2C3=CC=CC=C3N=C2NC(=O)C4=CC(=CC=C4)[N+](=O)[O-] [IRAK-1-4 Inhibitor I]
# Outline: as §1
# ibrutinib = compound: C=CC(=O)N1CCC[C@@H](n2nc(-c3ccc(Oc4ccccc4)cc3)c3c(N)ncnc32)C1 [ibrutinib]
# Outline: as §1
# [10] = compound: CC(=O)c1cnc2ccc(-c3cc(Cl)c(O)c(Cl)c3)nc2c1N[C@H]1CC[C@H](CN(C)C)CC1
# Outline: as §1
# ralimetinib = compound: CC(C)(C)Cn1c(N)nc2ccc(-c3[nH]c(C(C)(C)C)nc3-c3ccc(F)cc3)nc21 [ralimetinib]
# Outline: as §1
# [11] = compound: CC(C)(O)CC(=O)NCCn1ccc2ncnc(Nc3ccc(Oc4cccc(C(F)(F)F)c4)c(Cl)c3)c21
# Outline: as §1
# [12] = compound: CC(C)C1=C2N=C(C=C(N2N=C1)NCC3=CC=CC=C3)NCCCCCCN
# Outline: as §1
# [13] = compound: CC(C)C[C@@H](C=O)NC(=O)[C@H](CC(C)C)NC(=O)[C@H](CC(C)C)NC(=O)OCc1ccccc1
# Outline: as §1
# pinometostat = compound: CC(C)N(C[C@H]1O[C@@H](n2cnc3c(N)ncnc32)[C@H](O)[C@@H]1O)[C@H]1C[C@@H](CCc2nc3cc(C(C)(C)C)ccc3[nH]2)C1 [pinometostat]
# Outline: as §1
# [14] = compound: CC1=C(C(CC(=O)N1)C2=CC=C(C=C2)C(F)(F)F)C(=O)NC3=C(C=C4C(=C3)C=NN4)F
# Outline: as §1
# [15] = compound: CC1=C(C2=C(C=C1)C(=O)C3=CC=CC=C3N2CCCN)C
# Outline: as §1
Target,log2 fold change (erlotinib),log2 fold change [1],log2 fold change [2],log2 fold change [3],log2 fold change [4],log2 fold change [5],log2 fold change [6],log2 fold change [7],log2 fold change [8],log2 fold change [9],log2 fold change (IRAK-1-4 Inhibitor I),log2 fold change (ibrutinib),log2 fold change [10],log2 fold change (ralimetinib),log2 fold change [11],log2 fold change [12],log2 fold change [13],log2 fold change (pinometostat),log2 fold change [14],log2 fold change [15]
CCNB2 (UniProt O95067),inactive: 0.038,inactive: 0.005,inactive: 0.015,inactive: 0.079,inactive: 0.036,inactive: 0.032,inactive: -0.039,inactive: 0.04,inactive: 0,inactive: -0.016,inactive: 0.005,inactive: 0.028,inactive: -0.155,inactive: 0.035,inactive: -0.058,inactive: -0.078,inactive: 0.064,inactive: -0.019,inactive: -0.067,inactive: 0.054
CCNY (UniProt Q8ND76),inactive: -0.046,inactive: 0.043,inactive: -0.163,inactive: 0.021,inactive: 0.037,inactive: 0.005,inactive: 0.129,inactive: -0.065,inactive: -0.059,inactive: 0.013,inactive: -0.111,inactive: 0.113,inactive: 0.127,inactive: 0.084,inactive: -0.07,inactive: 0.019,inactive: -0.036,inactive: 0.016,inactive: -0.045,inactive: 0.237
CD320 (UniProt Q9NPF0),inactive: 0.037,inactive: 0.008,inactive: 0.007,inactive: -0.012,inactive: 0.009,inactive: 0.035,inactive: -0.036,inactive: 0,inactive: 0.021,inactive: 0.028,inactive: -0.018,inactive: 0.015,inactive: -0.016,inactive: -0.05,inactive: 0.019,inactive: -0.012,inactive: 0.006,inactive: -0.031,inactive: -0.025,inactive: -0.08
CCDC93 (UniProt Q567U6),inactive: 0.01,inactive: 0.066,inactive: -0.072,inactive: 0.026,inactive: 0.021,inactive: 0.033,inactive: 0.021,inactive: 0.005,inactive: -0.002,inactive: 0.028,inactive: 0.016,inactive: -0.036,inactive: -0.01,inactive: 0.065,inactive: -0.032,inactive: -0.105,inactive: 0.014,inactive: 0.01,inactive: 0.009,inactive: 0.087
CCDC91 (UniProt Q7Z6B0),inactive: 0.083,inactive: -0.003,inactive: 0.038,inactive: -0.132,inactive: -0.019,inactive: 0.052,inactive: -0.024,inactive: 0.014,inactive: 0.033,inactive: 0.006,inactive: -0.067,inactive: -0.014,inactive: 0.021,inactive: -0.009,inactive: -0.014,inactive: 0.058,inactive: 0.032,inactive: -0.033,inactive: -0.013,inactive: 0.005
CASTOR2 (UniProt A6NHX0),inactive: -0.026,inactive: 0.117,inactive: 0.013,inactive: 0.018,inactive: -0.031,inactive: 0.017,inactive: 0.029,inactive: -0.017,inactive: -0.065,inactive: -0.002,inactive: 0.078,inactive: 0.046,inactive: 0.008,inactive: -0.006,inactive: 0.016,inactive: 0.031,inactive: 0.046,inactive: -0.013,,inactive: 0.019
CD47 (UniProt Q08722),inactive: 0,inactive: 0.008,inactive: 0.059,inactive: -0.004,inactive: -0.005,inactive: 0.03,inactive: -0.052,inactive: -0.04,inactive: 0.015,inactive: 0.109,inactive: -0.006,inactive: 0.006,inactive: 0.003,inactive: 0.017,inactive: 0.005,inactive: 0.113,inactive: -0.006,inactive: -0.044,inactive: 0.006,inactive: 0.004
CD97 (UniProt P48960),inactive: -0.073,inactive: -0.002,inactive: 0.016,inactive: 0.011,inactive: -0.032,inactive: 0.016,inactive: 0.039,inactive: 0.023,inactive: -0.022,inactive: -0.004,inactive: 0.006,inactive: 0.045,inactive: -0.027,inactive: -0.019,inactive: -0.022,inactive: 0.023,inactive: 0.044,inactive: -0.101,inactive: 0.015,inactive: 0.037
CCDC82 (UniProt Q8N4S0),inactive: -0.08,inactive: 0.035,inactive: 0.011,inactive: -0.026,inactive: -0.01,inactive: 0.046,inactive: -0.022,inactive: -0.092,inactive: -0.004,inactive: 0.022,inactive: -0.041,inactive: 0.022,inactive: -0.07,inactive: -0.023,inactive: 0.012,inactive: 0,inactive: 0.028,inactive: -0.019,,active: -0.65
CCS (UniProt O14618),inactive: 0.072,inactive: 0.027,inactive: 0.077,inactive: 0.032,inactive: 0.097,inactive: 0.019,inactive: -0.007,inactive: -0.004,inactive: -0.022,inactive: 0.004,inactive: 0.036,inactive: -0.022,inactive: -0.07,inactive: 0.01,inactive: -0.051,inactive: -0.013,inactive: 0.012,inactive: -0.041,inactive: -0.009,inactive: 0.064
CCDC124 (UniProt Q96CT7),inactive: -0.024,inactive: -0.021,inactive: -0.158,inactive: 0,inactive: 0.003,inactive: 0.008,inactive: -0.035,inactive: -0.004,inactive: 0.026,inactive: -0.047,inactive: -0.059,inactive: -0.018,inactive: 0.048,inactive: 0.032,inactive: 0.004,inactive: 0.068,inactive: 0.056,inactive: 0.023,inactive: -0.005,inactive: 0.124
CBFA2T3 (UniProt O75081),inactive: 0.073,inactive: 0.066,inactive: 0.097,inactive: 0.184,inactive: -0.131,inactive: 0.029,inactive: -0.21,inactive: 0.022,inactive: -0.055,inactive: -0.048,inactive: -0.02,inactive: -0.088,inactive: -0.249,inactive: 0.132,inactive: 0.138,inactive: -0.074,inactive: 0.36,inactive: 0.011,inactive: 0.027,inactive: -0.024
CCDC12 (UniProt Q8WUD4),inactive: 0.011,inactive: -0.025,inactive: -0.015,inactive: 0.002,inactive: -0.023,inactive: 0.045,inactive: -0.057,inactive: 0.002,inactive: 0.001,inactive: 0.007,inactive: 0.088,inactive: 0.037,inactive: 0.084,inactive: -0.114,inactive: 0.009,inactive: 0.168,inactive: 0.018,inactive: -0.004,inactive: 0.017,inactive: 0.009
CDC16 (UniProt Q13042),inactive: -0.098,inactive: 0.059,inactive: -0.006,inactive: 0.023,inactive: -0.014,inactive: 0.033,inactive: 0,inactive: -0.022,inactive: 0.013,inactive: -0.023,inactive: -0.061,inactive: -0.032,inactive: -0.001,inactive: 0.008,inactive: -0.011,inactive: -0.049,inactive: 0.039,inactive: 0.09,inactive: 0.007,inactive: -0.042
CARM1 (UniProt Q86X55),inactive: 0.002,inactive: -0.02,inactive: 0.014,inactive: -0.009,inactive: -0.012,inactive: 0,inactive: -0.006,inactive: -0.02,inactive: 0.021,inactive: 0.06,inactive: 0.013,inactive: -0.008,inactive: 0.017,inactive: -0.058,inactive: -0.01,inactive: 0.031,inactive: -0.051,inactive: -0.067,inactive: -0.008,inactive: 0.016
CCDC137 (UniProt Q6PK04),inactive: -0.244,inactive: -0.173,inactive: 0.117,inactive: 0.004,inactive: -0.032,inactive: -0.043,inactive: -0.174,inactive: 0.066,inactive: 0.126,inactive: -0.078,inactive: -0.148,inactive: 0.192,inactive: 0.335,inactive: 0.024,inactive: 0.026,inactive: 0.14,inactive: 0.05,inactive: 0.4,inactive: 0.035,inactive: -0.504

# Two successive records out of the list so far, for reference:
Target,log2 fold change (erlotinib),log2 fold change [1],log2 fold change [2],log2 fold change [3],log2 fold change [4],log2 fold change [5],log2 fold change [6],log2 fold change [7],log2 fold change [8],log2 fold change [9],log2 fold change (IRAK-1-4 Inhibitor I),log2 fold change (ibrutinib),log2 fold change [10],log2 fold change (ralimetinib),log2 fold change [11],log2 fold change [12],log2 fold change [13],log2 fold change (pinometostat),log2 fold change [14],log2 fold change [15]
CD47 (UniProt Q08722),inactive: 0,inactive: 0.008,inactive: 0.059,inactive: -0.004,inactive: -0.005,inactive: 0.03,inactive: -0.052,inactive: -0.04,inactive: 0.015,inactive: 0.109,inactive: -0.006,inactive: 0.006,inactive: 0.003,inactive: 0.017,inactive: 0.005,inactive: 0.113,inactive: -0.006,inactive: -0.044,inactive: 0.006,inactive: 0.004
CD97 (UniProt P48960),inactive: -0.073,inactive: -0.002,inactive: 0.016,inactive: 0.011,inactive: -0.032,inactive: 0.016,inactive: 0.039,inactive: 0.023,inactive: -0.022,inactive: -0.004,inactive: 0.006,inactive: 0.045,inactive: -0.027,inactive: -0.019,inactive: -0.022,inactive: 0.023,inactive: 0.044,inactive: -0.101,inactive: 0.015,inactive: 0.037
